Laboratory results as given in US8841285B2, “Potent immunosuppressive agents, derivatives and uses” (priority 2002, dated 2014).
For at least one compound, name, drawing or mass did not settle the structure.

Chains of the proteins cited; added tags and fusions are not shown.
UniProt P60842, whole entry: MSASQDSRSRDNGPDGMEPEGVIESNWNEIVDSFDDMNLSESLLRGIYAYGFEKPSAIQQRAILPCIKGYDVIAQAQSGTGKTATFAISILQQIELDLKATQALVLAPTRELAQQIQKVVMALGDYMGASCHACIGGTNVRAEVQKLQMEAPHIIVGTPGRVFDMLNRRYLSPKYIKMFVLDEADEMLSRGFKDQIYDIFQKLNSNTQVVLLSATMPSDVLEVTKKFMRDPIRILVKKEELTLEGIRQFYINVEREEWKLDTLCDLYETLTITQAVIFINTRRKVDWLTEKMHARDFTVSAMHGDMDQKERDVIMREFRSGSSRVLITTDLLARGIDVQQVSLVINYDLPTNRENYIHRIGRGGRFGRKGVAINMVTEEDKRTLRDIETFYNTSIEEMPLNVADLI

Molecular target: T1, eIF4AI (Homo sapiens, UniProt P60842)
T1 construct: The entire ORF of human eIF4AI was ligated in-frame into the BamHI and HindIII sites of the pET-28a expression vector; 6XHis (N); made in house; host or cells: E. coli BL21(DE3)
Assay: RNA-dependent ATPase activity of recombinant 6XHis-eIF4AI
Format: biochemical
Conditions: saturating poly(U) RNA
Procedure: Recombinant proteins. The entire ORF of human eIF4AI was ligated in-frame into the BamHI and HindIII sites of the pET-28a expression vector after PCR amplification from HeLa cells. Protein was produced in BL21(DE3) E. coli cultured in LB medium by induction with 1 mM IPTG for 6 h at 37° C. Cells were lysed by sonication and protein was purified using Ni-NTA resin as described by the manufacturer. For pET(His6-eIF4B), induction conditions were for 72 h at 16° C. Purification included a 1 ml Heparin column with a linear KCl gradient (50-500 mM).
ATPase and Helicase. ATPase activity was performed as described (Korneeva et al., 2005) with minor modifications. Reactions contained 2.5% DMSO, 6XHis-eIF4AI concentration was 0.56 μM, and reaction time was 10 min at 37° C. in buffer: 20 mM Tris-HCl, pH 7.5, 0.5 mM MgCl2, 100 mM KCl, 2 mM DTT, 0.1% (v/v) Tween 20, 10% (v/v) glycerol, 1 mg/ml BSA, and reactions were supplemented with 3-5 μCi of [γ-^32P]-ATP (6000 Ci/mmol). Saturating poly(U) concentrations were 1239 μM (nucleotides/20). Released phosphate was visualized on 15% native TBE polyacrylamide gels followed by autoradiography of wet gels (30 min exposure). Film was aligned with gels and spots were excised and ^32P levels were quantified by scintillation counting. Km and Vmax were determined by curve fitting. […]

## CC(/C=C/C(C)=C/[C@@H]1Cc2nc(cs2)CCCCC(=O)O[C@@H](C)C/C(C)=C/C=C\C(=O)O1)=C\CN(C)C [compound 3, desmethyl, desamino-pateamine A]
  overall increase in kcat/Km: almost four fold
